Data reported in PubChem BioAssay AID222 (DTP/NCI, 2004).
The list does not hold the whole screen: it is rich in T/C values a quarter to a half above the control, in often repeated tests (any T/C) and in doses without a T/C. Other doses and runs of a compound stand elsewhere. T/C gives the treated animals as a percentage of the vehicle group. Some doses have a count of surviving animals in place of a T/C: the source files T/C as zero there, which appears to mark a toxic dose or a test without result, not a measured value. Some survivor counts are full or nearly so, which does not show that the dose was tolerated: the source hardly ever lists a survival T/C far under the control, and the zero likely stands for such cases as well. Survivors were counted at the toxicity check, usually on the fifth day, unless a day is given; later deaths do not show. Schedule codes are those of the source, read here as Q, the interval in days (D) or hours (H), X, the number of doses. Some doses were run more than once; the values are given in rising order. Some molecules as drawn cover several salts, stereoisomers or complexes of the source; a dose is that of the sample tested. Where survival is the endpoint, the PubChem record calls one and a half times the control and up active, and a quarter to a half above the control has no call in these data; cut-offs in other NCI protocols can differ. Some T/C values are followed by the survivors on the day toxicity was checked, most often the fifth; where none is given, no animal had died by that day. Marks such as (2×) stand for listed records that agree.

Test system: C57BL/6 mice, intracerebral ependymoblastoma, median survival T/C
Experiment: NCI In Vivo Anticancer Drug Screen. Data for tumor model Ependymoblastoma (intracerebral) in C57BL/6 mice
Settings: T/C endpoint: median survival time, higher T/C = longer survival
Procedure: The antitumor activity of compounds was measured in mice bearing transplantable tumors. Survival or tumor size were measured and the results are expressed as the measurement made in the treated group (T) divided by the measurement made in the vehicle treated control group (C). The tumor model used in this assay is Ependymoblastoma (intracerebral) in C57BL/6 mice

[1] = dose: 16.0 mg/kg/injection, schedule: Q01DX005 (ip), vehicle: Klucel (hydroxypropylcellulose) (HPC)
[2] = dose: 32.0 mg/kg/injection, schedule: Q01DX005 (ip), vehicle: Klucel (hydroxypropylcellulose) (HPC)
[3] = dose: 16.0 mg/kg/injection, schedule: Q01DX005 (ip), vehicle: saline with Tween-80
[4] = dose: 32.0 mg/kg/injection, schedule: Q01DX005 (ip), vehicle: saline with Tween-80
[5] = dose: 64.0 mg/kg/injection, schedule: Q01DX005 (ip), vehicle: Klucel (hydroxypropylcellulose) (HPC)
[6] = dose: 64.0 mg/kg/injection, schedule: Q01DX005 (ip), vehicle: saline with Tween-80
[7] = dose: 50.0 mg/kg/injection, schedule: Q01DX005 (ip), vehicle: Klucel (hydroxypropylcellulose) (HPC)
[8] = dose: 128.0 mg/kg/injection, schedule: Q01DX005 (ip), vehicle: Klucel (hydroxypropylcellulose) (HPC)
[9] = dose: 256.0 mg/kg/injection, schedule: Q01DX005 (ip), vehicle: Klucel (hydroxypropylcellulose) (HPC)
[10] = dose: 4.0 mg/kg/injection, schedule: Q01DX005 (ip), vehicle: Klucel (hydroxypropylcellulose) (HPC)
[11] = dose: 1024.0 mg/kg/injection, schedule: Q01DX005 (ip), vehicle: Klucel (hydroxypropylcellulose) (HPC)

CC(=O)CC(c1ccccc1)c1c(O)c2ccccc2oc1=O (centres undefined)
survivor count (dose: 0.72 mg/kg/injection, schedule: Q01DX005 (ip), vehicle: saline): 6 of 10

O=c1[nH]cc(F)c(=O)[nH]1
survivor count (dose: 40.0 mg/kg/injection, schedule: Q01DX005 (ip), vehicle: saline): 6 of 6

O=C(O)CCCc1ccc(N(CCCl)CCCl)cc1
survivor count (dose: 0.5 mg/kg/injection, schedule: Q01DX005 (ip), vehicle: Klucel (hydroxypropylcellulose) (HPC)): 5 of 6 | survivor count (dose: 16.0 mg/kg/injection, schedule: Q01DX001 (ip), vehicle: Klucel (hydroxypropylcellulose) (HPC)): 8 of 10 | survivor count [1]: 9 of 10 | survivor count (dose: 32.0 mg/kg/injection, schedule: Q01DX001 (ip), vehicle: Klucel (hydroxypropylcellulose) (HPC)): 5 of 10 | survivor count [2]: 4 of 10 and 8 of 10

O=C1c2ccccc2C(=O)c2c(NCCNCCO)ccc(NCCNCCO)c21
survivor count (dose: 16.0 mg/kg/injection, schedule: Q01DX005 (ip), vehicle: other): 10 of 10 | survivor count [3]: 8 of 10 | survivor count (dose: 16.0 mg/kg/injection, schedule: Q01DX005 (ip), vehicle: water): 10 of 10 | survivor count (dose: 32.0 mg/kg/injection, schedule: Q01DX005 (ip), vehicle: other): 8 of 10 | survivor count [4]: 5 of 10 | survivor count (dose: 32.0 mg/kg/injection, schedule: Q01DX005 (ip), vehicle: water): 10 of 10 | survivor count [5]: 10 of 10 | survivor count (dose: 64.0 mg/kg/injection, schedule: Q01DX005 (ip), vehicle: other): 0 of 10 | survivor count [6]: 2 of 10 | survivor count (dose: 64.0 mg/kg/injection, schedule: Q01DX005 (ip), vehicle: water): 4 of 10 and 8 of 10 | survivor count (dose: 64.0 mg/kg/injection, schedule: Q04DX003 (ip), vehicle: water): 8 of 10 | survivor count (dose: 128.0 mg/kg/injection, schedule: Q01DX001 (ip), vehicle: water): 9 of 10 | survivor count (dose: 128.0 mg/kg/injection, schedule: Q01DX005 (ip), vehicle: other): 0 of 10 | survivor count (dose: 128.0 mg/kg/injection, schedule: Q01DX005 (ip), vehicle: water): 2 of 10 | survivor count (dose: 128.0 mg/kg/injection, schedule: Q04DX003 (ip), vehicle: Klucel (hydroxypropylcellulose) (HPC)): 9 of 10 | survivor count (dose: 128.0 mg/kg/injection, schedule: Q04DX003 (ip), vehicle: water): 6 of 10 | survivor count (dose: 256.0 mg/kg/injection, schedule: Q01DX001 (ip), vehicle: water): 1 of 10 | survivor count (dose: 512.0 mg/kg/injection, schedule: Q01DX001 (ip), vehicle: Klucel (hydroxypropylcellulose) (HPC)): 0 of 10 | survivor count (dose: 512.0 mg/kg/injection, schedule: Q01DX001 (ip), vehicle: water): 1 of 10

OCCN1CCN(CC/C=C2/c3ccccc3Sc3ccc(C(F)(F)F)cc32)CC1
survivor count (dose: 50.0 mg/kg/injection, schedule: Q04DX003 (ip), vehicle: saline): 8 of 10 | survivor count (dose: 100.0 mg/kg/injection, schedule: Q04DX003 (ip), vehicle: saline): 3 of 10

Nc1ncnc2nc[nH]c12
survivor count [6]: 8 of 10 | survivor count (dose: 256.0 mg/kg/injection, schedule: Q01DX005 (ip), vehicle: saline with Tween-80): 8 of 10 | survivor count (dose: 512.0 mg/kg/injection, schedule: Q01DX005 (ip), vehicle: saline with Tween-80): 5 of 10 | survivor count (dose: 1024.0 mg/kg/injection, schedule: Q01DX005 (ip), vehicle: saline with Tween-80): 0 of 10

COC1C(CO)OC(n2cnc3c(=S)nc(N)[nH]c32)C1O (centres undefined)
survivor count [7]: 9 of 10 | survivor count (dose: 200.0 mg/kg/injection, schedule: Q01DX005 (ip), vehicle: Klucel (hydroxypropylcellulose) (HPC)): 7 of 10 | survivor count (dose: 400.0 mg/kg/injection, schedule: Q01DX005 (ip), vehicle: Klucel (hydroxypropylcellulose) (HPC)): 7 of 10

NC(CSC(c1ccccc1)(c1ccccc1)c1ccccc1)C(=O)O (centres undefined)
survivor count [8]: 9 of 10 | survivor count [9]: 3 of 10

O=C1NC(=O)C2(CCc3ccc(N(CCCl)CCCl)cc32)N1 (centres undefined)
survivor count [7]: 8 of 10 | survivor count (dose: 100.0 mg/kg/injection, schedule: Q01DX005 (ip), vehicle: Klucel (hydroxypropylcellulose) (HPC)): 10 of 10

COc1cccc2c1C(=O)c1c(O)c3c(c(O)c1C2=O)C[C@@](O)(/C(C)=N/NC(=O)c1ccccc1)C[C@@H]3OC1CC(N)C(O)C(C)O1 (some centres undefined)
survivor count (dose: 8.0 mg/kg/injection, schedule: Q01DX005 (ip), vehicle: saline with Tween-80): 10 of 10 | survivor count (dose: 8.0 mg/kg/injection, schedule: Q01DX009 (ip), vehicle: saline): 10 of 10 | survivor count [3]: 9 of 10 | survivor count [4]: 2 of 10

CCN(CC)CCOc1ccc(/C(=C(\Cl)c2ccccc2)c2ccccc2)cc1
T/C (dose: 8.0 mg/kg/injection, schedule: Q01DX005 (ip), vehicle: saline): 97 [9 of 10 alive], 102 (2×), 108, 123 % of control | T/C (dose: 16.0 mg/kg/injection, schedule: Q01DX005 (ip), vehicle: saline): 94, 97 [9 of 10 alive], 102, 106, 118 % of control | T/C (dose: 32.0 mg/kg/injection, schedule: Q01DX005 (ip), vehicle: saline): 88, 98, 102, 104, 106 % of control | T/C (dose: 64.0 mg/kg/injection, schedule: Q01DX005 (ip), vehicle: saline): 93 [7 of 10 alive], 96, 104, 113, 119 % of control | survivor count [8]: 1 of 10 and 3 of 10 | survivor count (dose: 128.0 mg/kg/injection, schedule: Q01DX005 (ip), vehicle: saline): 0 of 10, 6 of 10, 7 of 10, 10 of 10 | survivor count (dose: 256.0 mg/kg/injection, schedule: Q01DX005 (oral), vehicle: Klucel (hydroxypropylcellulose) (HPC)): 10 of 10 | survivor count (dose: 512.0 mg/kg/injection, schedule: Q01DX005 (oral), vehicle: Klucel (hydroxypropylcellulose) (HPC)): 9 of 10

CC(=O)[C@]1(O)Cc2c(O)c3c(c(O)c2[C@@H](OC2CC(N)C(O)C(C)O2)C1)C(=O)c1c(O)cccc1C3=O (some centres undefined)
survivor count (dose: 250.0 micrograms/kg/injection, schedule: Q01DX005 (ip), vehicle: suspension in saline): 7 of 10 | survivor count (dose: 500.0 micrograms/kg/injection, schedule: Q01DX005 (ip), vehicle: suspension in saline): 0 of 10

CCOC(=O)CNC(=O)CCCCSc1ncnc2nc[nH]c12
T/C [10]: 98, 106, 112 % of control | survivor count [10]: 10 of 10 | T/C [1]: 94 (2×), 101, 104, 110 % of control | T/C [5]: 103, 104 (2×), 111 [9 of 10 alive], 113 [9 of 10 alive], 116 % of control | survivor count (dose: 256.0 mg/kg/injection, schedule: Q01DX001 (oral), vehicle: Klucel (hydroxypropylcellulose) (HPC)): 2 of 10 | T/C [9]: 102 [9 of 10 alive], 106, 111, 117 % of control | T/C (dose: 512.0 mg/kg/injection, schedule: Q01DX005 (ip), vehicle: Klucel (hydroxypropylcellulose) (HPC)): 127 % of control | T/C [11]: 118 and 130 % of control | survivor count [11]: 0 of 10, 9 of 10, 10 of 10 | survivor count (dose: 1024.0 mg/kg/injection, schedule: Q01DX005 (ip), vehicle: saline): 10 of 10 | survivor count (dose: 2048.0 mg/kg/injection, schedule: Q01DX005 (ip), vehicle: saline): 8 of 10

COC1C(O)C(C)OC(OC2C(Oc3cccc4c(O)c5c(=O)oc6ccc(C)c7c(=O)oc(c34)c5c67)OC(C)C(O)C2O)C1O (centres undefined)
T/C [10]: 136 % of control | T/C [2]: 126 % of control [9 of 10 alive] | T/C [8]: 134 % of control [8 of 10 alive] | survivor count [8]: 1 of 10 and 4 of 10 | survivor count [9]: 0 of 10 and 1 of 10
